# Source: the supplement of paper PMC10338343
# ± gives the standard deviation. The list shows a part of the results. The uncertainty is large for many entries.
# Test system: EfPiwi piRISC loaded with L1MC piRNA (26 nt)
# Assay: pre-steady-state target cleavage rate (min^-1); guide: L1MC piRNA 5'p-UAACUAAAUACUAUGCAAGCUGUAGG; MIWI and MILI are mouse PIWI proteins and EfPiwi is from a freshwater sponge; tags in brackets are library labels; higher = faster piRNA-guided slicing of the target
# Details: auxiliary factor: 500 nM Ephydatia muelleri Gtsf1
# Summary of the method: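 The pre-steady-state cleavage rate was obtained by Cleave-'n-Seq with a burst-and-steady-state fit. A transcribed, DNA-blocked target RNA library (0.1 nM) was mixed with 1 nM active affinity-purified piRISC carrying one synthetic guide, with or without 500 nM GTSF1 partner protein, in HEPES–potassium acetate buffer at 33 °C for 0–8 or 0–960 min. Uncleaved targets were sequenced and normalised to depth and to weakly complementary targets, with three trials pooled and k3 capped at 0.0001 min^-1.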
row,Sequence,pre-steady-state target cleavage rate
1,UCCUGGAUGAGCUUGCAUAGUCAUUUAGUUA,0.000454 ± 0.0073
2,UCCUGGAUCACGAUGCAUAGUAUUUACAAA,0.00224 ± 0.0047
3,UCCUCCUACAGCUUGCUAAGUAUUUAGAAA,0.002 ± 0.0042
4,UCCUCCUACAGCUUCGUUAGUAUUUACAAA,0.000318 ± 0.0087
5,UCCUGGAUGUGCUUGCAUUCAUAAAUCAAA [g13:g20:cont:t1A],< 0.0001
6,UCCUGCUACACGAUGCAUAGUAUUUACAAA,0.00103 ± 0.0035
7,UCCUCCUACAGCUUGCAAUCUAUUUAGAAA,0.00122 ± 0.0065
8,UCCUGGAUGUGCUACGAUAGUAUUUAGAAA,0.000306 ± 0.0092
9,UCCUGGAUGUCCUUGCAUAGUUUUUAGUAA,0.00206 ± 0.0043
10,UCCUGCUACAGCUUGCAUAGUAAAAACAAA,0.00179 ± 0.0029
11,UCCUGGAUGAGCUUGCAUAGUAUAUACAAA,0.000539 ± 0.0091
12,UCCUCCUACAGGAUGCAUAGUAUUUAGAAA,0.00396 ± 0.0014
13,UCCUGGAUCAGGAUGCAUAGUAUUUAGAAA,0.00187 ± 0.0026
14,UCCUCCUACAGCUUGCAUAGUAAAUUCAAA,0.00279 ± 0.0021
15,UCCUGGUACAGCUUGCAUAGUAUUUGUUA,0.00241 ± 0.003
16,UCCUGGAUGUCCAUGCAUAGUAUUUAGUAA,0.00068 ± 0.0045
17,UCCUGCUACACCUUGCAUAGUAUUUUCAAA,0.00244 ± 0.0022
18,UCCUGCAUCAGCUUGCAUAGUAUUUUCAAA,0.00236 ± 0.0016
19,UCCUGCUACAGCUUGCAUAGUAAAAAGUAA,0.00322 ± 0.0027
20,UCCUGGAUGUCCUUGCAUAGUAUUUAUGUUA,0.00143 ± 0.0046

row,Sequence,pre-steady-state target cleavage rate
1,UCCUGGAACAGCUUGCAUACAUUUUAGAAA,0.000405 ± 0.0075
2,UCCUGGAUGUCGUUGCAUAGUAUAUAGAUA,0.000376 ± 0.0095
3,UCCUGGUACACCUUCCAUAGUAUUUAGUUA,0.00121 ± 0.0058
4,UCCUCCUACAGCUUCCAUAGUAUAUAGUUA,0.00246 ± 0.0022
5,UCCUCCUACAGCUUGCAAUGUAUUUAGAAA,0.0022 ± 0.0043
6,UCCUCCUACAGCUUGCAUAGUAUUAUGAAA,0.00358 ± 0.0025
7,UCCUGGAUCAGCUUGCAUAGUAUUAUCUAA,0.00218 ± 0.0037
8,UCCUGCUACAGCUUCGAUAGUAUUUAGAAA,0.00217 ± 0.0033
9,UCCUGCUACAGCUUGCAUAGUUAAUAGAAA,0.00122 ± 0.0042
10,UCCUGCUACAGGAUGCAUAGUAUUUACAAA,0.0011 ± 0.0023
11,UCCUGGAUGUCGUUGCAUAGUUAAAUCAAA [g10:g18:cont:t1A],0.000615 ± 0.012
12,UCCUGGAUCAGCUUGCAUUGUAUUUACAAA,0.00105 ± 0.0037
13,UCCUGGAUGUCCUUCCAUAGUAAUUAGUUA,0.00075 ± 0.0061
14,UCCUGCUACAGCUUGCAUAGUAAAAAGUUA,0.00305 ± 0.0016
15,UCCUGGAUGUCCUUGGAUAGAAUUUAGUUA,0.000485 ± 0.0097
16,UCCUGCUACAGCUUGCAUAGUAAAUAGUAA,0.00351 ± 0.0022
17,UCCUGCUACAGCUUGCAUAGUAUAAACAAA,0.00142 ± 0.0034
18,UCCUCCUACAGCAACCAUAGUAUUUUCAAA,0.000713 ± 0.0088
19,UCCUCCUACAGCUUGCAUACAAUUUAGUAA,0.0035 ± 0.0038
20,UCCUGGAUGUCGAUGCAUAGUAUUUAGUGA,0.000844 ± 0.006

# Same assay, conditions: auxiliary factor: none (no Gtsf1)
row,Sequence,pre-steady-state target cleavage rate
1,UCCUGGAUGAGCUUGCAUAGUCAUUUAGUUA,0.000354 ± 0.017
2,UCCUGGAUCACGAUGCAUAGUAUUUACAAA,0.000305 ± 0.028
3,UCCUCCUACAGCUUGCUAAGUAUUUAGAAA,0.000415 ± 0.01
4,UCCUCCUACAGCUUCGUUAGUAUUUACAAA,0.000204 ± 0.022
5,UCCUGGAUGUGCUUGCAUUCAUAAAUCAAA [g13:g20:cont:t1A],0.000353 ± 0.018
6,UCCUGCUACACGAUGCAUAGUAUUUACAAA,0.000219 ± 0.036
7,UCCUCCUACAGCUUGCAAUCUAUUUAGAAA,0.000217 ± 0.015
8,UCCUGGAUGUGCUACGAUAGUAUUUAGAAA,0.000414 ± 0.02
9,UCCUGGAUGUCCUUGCAUAGUUUUUAGUAA,< 0.0001
10,UCCUGCUACAGCUUGCAUAGUAAAAACAAA,0.000294 ± 0.024
11,UCCUGGAUGAGCUUGCAUAGUAUAUACAAA,0.000208 ± 0.049
12,UCCUCCUACAGGAUGCAUAGUAUUUAGAAA,0.000262 ± 0.017
13,UCCUGGAUCAGGAUGCAUAGUAUUUAGAAA,0.000284 ± 0.016
14,UCCUCCUACAGCUUGCAUAGUAAAUUCAAA,0.000407 ± 0.011
15,UCCUGGUACAGCUUGCAUAGUAUUUGUUA,0.00101 ± 0.011
16,UCCUGGAUGUCCAUGCAUAGUAUUUAGUAA,0.000231 ± 0.03
17,UCCUGCUACACCUUGCAUAGUAUUUUCAAA,0.000423 ± 0.014
18,UCCUGCAUCAGCUUGCAUAGUAUUUUCAAA,0.000423 ± 0.012
19,UCCUGCUACAGCUUGCAUAGUAAAAAGUAA,0.000248 ± 0.022
20,UCCUGGAUGUCCUUGCAUAGUAUUUAUGUUA,0.000376 ± 0.02

row,Sequence,pre-steady-state target cleavage rate
1,UCCUGGAACAGCUUGCAUACAUUUUAGAAA,0.00052 ± 0.014
2,UCCUGGAUGUCGUUGCAUAGUAUAUAGAUA,< 0.0001
3,UCCUGGUACACCUUCCAUAGUAUUUAGUUA,0.000223 ± 0.038
4,UCCUCCUACAGCUUCCAUAGUAUAUAGUUA,< 0.0001
5,UCCUCCUACAGCUUGCAAUGUAUUUAGAAA,0.000241 ± 0.02
6,UCCUCCUACAGCUUGCAUAGUAUUAUGAAA,0.000479 ± 0.011
7,UCCUGGAUCAGCUUGCAUAGUAUUAUCUAA,0.000203 ± 0.039
8,UCCUGCUACAGCUUCGAUAGUAUUUAGAAA,0.000158 ± 0.035
9,UCCUGCUACAGCUUGCAUAGUUAAUAGAAA,0.000284 ± 0.015
10,UCCUGCUACAGGAUGCAUAGUAUUUACAAA,0.000283 ± 0.021
11,UCCUGGAUGUCGUUGCAUAGUUAAAUCAAA [g10:g18:cont:t1A],0.0001 ± 0.038
12,UCCUGGAUCAGCUUGCAUUGUAUUUACAAA,0.000285 ± 0.025
13,UCCUGGAUGUCCUUCCAUAGUAAUUAGUUA,< 0.0001
14,UCCUGCUACAGCUUGCAUAGUAAAAAGUUA,0.000948 ± 0.0085
15,UCCUGGAUGUCCUUGGAUAGAAUUUAGUUA,0.00016 ± 0.015
16,UCCUGCUACAGCUUGCAUAGUAAAUAGUAA,0.00014 ± 0.038
17,UCCUGCUACAGCUUGCAUAGUAUAAACAAA,0.000123 ± 0.022
18,UCCUCCUACAGCAACCAUAGUAUUUUCAAA,0.00019 ± 0.026
19,UCCUCCUACAGCUUGCAUACAAUUUAGUAA,0.000538 ± 0.0098
20,UCCUGGAUGUCGAUGCAUAGUAUUUAGUGA,0.000498 ± 0.015
